No constants are given. Whether binding was seen depends on the method and setting. In cells and extracts the contact can be indirect. Here binding means that the protein was enriched with, or labelled near, the bait; the list need not be complete.
Target: Rbm24a-GFP (maternal, from the rbm24a-GFP knock-in line) (zebrafish)
Experiment: affinity purification with mass spectrometry; GFP-Trap agarose beads on precleared lysates of about 2200 rbm24a-GFP KI embryos at 4 hpf, wild-type embryos as control; 10 mM Tris-HCl pH 7.5, 150 mM NaCl, 0.5 mM EDTA, 0.5% NP-40; 4 °C overnight; SDS-PAGE, gel pieces, LC-MS/MS

binding: binds
B1: Bucky ball (Buc), endogenous (protein, UniProt H0WFA5 1-639)
chain: MEGINNNSQPMGVGQPHHPVNHTRPFFYVQPPSQPYFMYQWPMNPYGHYGFPGPALHFGRPYMAPYQFMQYPGYVIPHAPMQPIDYRRINPHYPSVASYDLRVRHHFQNAGMHRETACSEVQTDPSDSVNKLIDKIESLKACELGSDKGPNNVVSSTPDVVQGEKLTRLNEDSNLEVATKECKEDPVTRPTTYSDSAYDAESSQGRLDECVFSDVLPLDSSSVHEEEEEEEKDVNEEDEPQTVADEICSQNEMSASTTSNVFCSGVQSIADPTECHDLEKLGDEQKQDIPSADAAAVIEPLISLSEDFDLPYQILRLPCNKTTTGLSLEREIDPLVYFDSPSTLLPPQNYLSSIGSAYSYSYYPQVTQERQSVLSPSIDELSSRDEMFSTDVEDLEVVPGHVYVGGGRLAEASDMPVRSRKELPSVDKTCSVCQKTCACCGSTLQDEVGMCKMAEHSHPERDEMSDQDCDYDLEAEVRSNCESPRVSKRKCCSRHALPSCGHHCAKHRHRKLLCEGQESCDLREQARVHPKGECCEEYGALAKADKRIQKGALCRPCIEQQWREGVVSDQENWASCGAKPRSWRQVTGPQDQGRTPLRRSTCKSIHQQRPRSEYNDYDETEFTYCQRGRGSMKKRGSRY
